Results taken from patent publication US20210261671A1.
Results are given in words; binding and its absence hold for the method and conditions named. Some binding calls cover weakened binding; strength is not graded here.

Amino acid sequences for entries named in this document (tags omitted). A change or cut given only in a name is not applied to a line headed by its entry.
UniProt P36888: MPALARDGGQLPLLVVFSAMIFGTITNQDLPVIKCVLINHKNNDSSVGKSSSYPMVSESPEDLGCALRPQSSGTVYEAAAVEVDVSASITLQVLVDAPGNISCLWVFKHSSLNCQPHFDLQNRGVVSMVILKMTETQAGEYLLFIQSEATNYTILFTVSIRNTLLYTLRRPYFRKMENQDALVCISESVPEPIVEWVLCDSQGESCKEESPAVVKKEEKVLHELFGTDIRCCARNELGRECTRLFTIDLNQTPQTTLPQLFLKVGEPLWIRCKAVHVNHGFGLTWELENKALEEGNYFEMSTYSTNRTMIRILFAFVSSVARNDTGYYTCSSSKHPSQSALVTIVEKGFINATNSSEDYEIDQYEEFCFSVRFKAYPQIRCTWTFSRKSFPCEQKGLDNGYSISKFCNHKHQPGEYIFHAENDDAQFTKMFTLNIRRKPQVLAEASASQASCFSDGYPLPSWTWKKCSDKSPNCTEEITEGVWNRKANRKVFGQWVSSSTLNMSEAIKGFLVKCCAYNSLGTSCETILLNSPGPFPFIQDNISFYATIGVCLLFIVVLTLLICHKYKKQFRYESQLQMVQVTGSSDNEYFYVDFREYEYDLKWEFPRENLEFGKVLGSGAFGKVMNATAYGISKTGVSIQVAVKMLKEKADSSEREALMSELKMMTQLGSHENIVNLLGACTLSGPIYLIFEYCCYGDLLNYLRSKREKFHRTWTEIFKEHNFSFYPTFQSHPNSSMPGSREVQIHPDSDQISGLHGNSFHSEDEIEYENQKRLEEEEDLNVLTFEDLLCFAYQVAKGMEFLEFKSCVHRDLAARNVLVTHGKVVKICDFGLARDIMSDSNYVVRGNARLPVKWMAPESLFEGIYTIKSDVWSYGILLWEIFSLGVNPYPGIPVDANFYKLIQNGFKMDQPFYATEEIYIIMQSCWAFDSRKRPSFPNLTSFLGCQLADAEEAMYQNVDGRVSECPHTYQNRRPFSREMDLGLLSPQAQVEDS

B1: FLL134 (VHH)
VHH: QVQLQESGGGLVQPGGSLRLSCAASGGTFSSYATGWFRQVPGKEREFIAGISRNSGRTYAESVKGRFTISRDNAKNTVYLQMNTLRPDDTAVYYCAAARYFTRDAIYTSGDDYDYWGQGTQVTASS
B2: FLL1 (VHH)
VHH: QVQLQESGGGLVQAGGSLRLSCAASGRTFSTLTVAWFRQAPGKEREFVVASIPSGSNTGYAESVKGRFTISRDIAKNTVYLQMNSLKPEDTAMYFCAARIYFGSSRGYDYWGQGTQVTVSS
B3: FLL26 (VHH)
VHH: QVQLQESGGGLVQAGGSLRLSCAASGRTFTTYTVAWFRQAPGKEREFLVASIPTGSNTAYAESVKGRFTISRGNAKNTVYLQMNSLKPEDTAMYYCAARTYFGSSRGYDYWGQGTQVTVSS
B4: FLL102 (VHH)
VHH: QVQLQESGGGLVQAGGSLMVSCAASGGTWSSYATGWFRQVPGKERKLIAGISRSGGRTYYAESVKGRFTISRDNAKNTVYLQMNTLKPDDTAVYYCAAARYFTSSVVYTSGNDYDYWGQGTQVTVSS
B5: FLL92 (VHH)
VHH: QVQLQESGGGLVQAGGSLMVSCAASGGTWSSYATGWFRQVPGKERELIAGISRSGGRTYYAESVKGRFTISRDNAKNTVYLQMNTLKSDDTAVYYCAAARYFTSSVVYTSGNDYDYWGQGTQVTVSS
B6: FLL41 (VHH)
VHH: QVQLQESGGGLVQLGDSLMVSCAASGGTFSSYATGWFRQVPGREREFIAGISRSGGRTYYAESVKGRFTISRDNAKNTVYLQMNTLKPDDTAVYYCAAARYFTTSVVYTSGDDYDYWGQGTQVTVSS
B7: FLL84 (VHH)
VHH: QVQLQESGGGLVQAGGSLMVSCAASGGTFSSYATGWFRQVPGKEREFIAGISRSGGRTYYAESVKGRFTISRDNAKNTVYLQMNTLKPDDTAVYYCAAARYFTTSVVYTSGDDYDYWGQGTQVTVSS
B8: FLL122 (VHH)
VHH: QVQLQESGGGLVQAGGSLMVSCAASGGTWSSYATGWFRQVPGKERELIAGISRSGGRTYYAESVKGRFTISRDNAKNTVYLQMNTLKPDDTAVYYCAAARYFTSSVVYTSGNDYDYWGQGTQVTVSS
B9: FLL71 (VHH)
VHH: QVQLQESGGGLVQVGGSLMVSCAASGGTFSSYATGWFRQVPGKEREFIAGISRNSGRTYYAESVKGRFTISRDNAKNTVYLQMNTLKPDDTAVYYCAAARYFTRDAVYTSGDDYDYWGQGTQVTVSS
B10: FLL67 (VHH)
VHH: QVQLQESGGGLVQLGDSLMVSCAASGGTFSSYATGWFRQVPGKEREFIAGISRSGGRTYYAESVKGRFTISRDNAKNTVYLQMNTLKPDDTAVYYCAAARYFTTSVVYTSGDDYDYWGQGTQVTVSS
B11: FLL8 (VHH)
VHH: QVQLQESGGGLVQVGGSLMVSCAASGGTFSSYATGWFRQVPGKEREFIAGISRNSGRTYYAESVKGRFTISRDNAKNTVYLQMNTLKPDDTAVYYCAAARYFTRDVVYTSGDDYDYWGQGTQVTVSS
B12: FLL53 (VHH)
VHH: QVQLQESGGGLVQAGDSLRLSCAVSGRTFSGFGTGWFRQAPGKEREFVAAVSQSGGTTHYADSVKGRFTISRDNAKNTETLVYLQMNSLKPEDTAVYYCAGQVARAYDSSWYARGDYWGQGTQVTVSS
B13: FLL153 (VHH)
VHH: QVQLQESGGGLVQVGGSLMVSCAASGGTFSSYATGWFRQVPGKEREFIAGVSRNSGRTYYAESVKGRFTISRDNAKNTVYLQMNTLKPDDTGVYYCAAARYFTRDAVYTSGDDYDYWGQGTQVTVSS
B14: FLL99 (VHH)
VHH: QVQLQESGGGLVQAGGSLRLSCAVSGRTFSGFGTGWFRQAPGKEREFVAAISWDGGRTHYADFVKGRFTISRDNAKNTVYLQMNSLKPEDTAVYYCAAQVARAYDSRWYSGGDYWGQGTQVTVSS
B15: FLL38 (VHH)
VHH: QVQLQESGGGLVQAGGSLRLSCAVSGRTFSGFGTGWFRQAPGKEREFVAAVSWSGGTTEIADSVKGRFTISRDNAKNTVYLQMSSLKPGDTAVYYCAGQVARAYDSRWYSRGDYWGQGTQVTVSS
B16: FLL74 (VHH)
VHH: QVQLQESGGGLVQAGGSLRLSCRFSGRTFSGFGTGWFRQAPGKEREFVAAISWAGGRTHYEDSVKGRFTISRDNAKNTVYLQMNSLKPEDTAVYYCAVQVSRAYDGIWYSGGDYWGQGTQVTVSS
B17: FLL107 (VHH)
VHH: QVQLQESGGGLVQAGGSLRLSCAASGRTFSSYAMGWFRQAPGKEREFVAAISWSGSNTYYADSVKGRFTISRDNAKNTVYLQMDSLKPEDTAVYYCAAGGSTRVVVTTTPVVKYWGQGTQVTVSS
B18: FLL4 (VHH)
VHH: QVQLQESGGGLVQAGGSLRLSCAASERTFSSYTMGWFRQAPGKEREFVAAMSWSGGSTYYADSVKGRFTISRDNAKNTVYLQMDSLKPEDTAVYYCAAGGSTRVVVTTTPVVKYWGQGTQVTVSS
B19: FLL34 (VHH)
VHH: QVQLQESGGGLVQAGGSLRLSCAASGRTFSSYALGWFRQAPGKEREFVAAISWSGGNTYYADSVKGRFTISRDDAKNTVYLQMDSLKPEDTAVYYCAAGGSTRVVVTTTPVVKYWGQGTQVTVSS
B20: FLL141 (VHH)
VHH: QVQLQESGGGLVQAGGSLRLSCAASGRTFSSYAMGWFRQAPGMEREFVAAISWSGYSTYYADSVKGRFTISRDDAKNTVYLQMDSLKPEDTAVYYCAAGGSTRVVVTTTPVVKYWGQGTQVTVSS
B21: FLL61 (VHH)
VHH: QVQLQESGGGLVQAGGSLRLSCAASERTFSSYAMGWFRQAPGKEREFVAAISWSGGSTYYADSVKGRFTISRDNAKNTVYLQMDSLKPEDTAVYYCAAGGSTRVVVTTTPIVKYWGQGTQVTVSS
B22: FLL78 (VHH)
VHH: QVQLQESGGGWVQAGGSLRLSCAASGRTFSSYAMGWFRQAPGKEREFVAAISWSGSSTYYADSVKGRFTISRDNAKNTVYLLMDSLKPEDTAVYYCAAGGSTRVVVTTTPVVKYWGQGTQVTVSS
B23: FLL160 (VHH)
VHH: QVQLQESGGGLVQAGDSLRLSCATSGRTFNLYRVGWFRQAPGKEREFVARITWSADITQYADSVKGRFTISRDNAKNTVYLQMNSLKPEDTAIYYCATTLRKSSGIYHVDDYDDWGQGTQVTVSS

target: human FLT3 protein (human) (UniProt P36888); assay: colorimetric ELISA, periplasmic extract

binding, binds:
B1, B2, B3, B4, B5, B6, B7, B8, B9, B10, B11, B12, B13, B14, B15, B16, B17, B18, B19, B20, B21, B22, B23
